Measurements reported in PubChem BioAssay AID652243 (Drosophila RNAi Screening Center, 2013).

- Aim: 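Fly genes required for human androgen receptor driven transcription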 (primary screen)
- Cells: Drosophila S2R+ cells
- Reagents: long dsRNA against Drosophila genes
- Duration: 72 h (48 h, then 24 h hormone)
- Conditions: synthetic androgen R1881 at 10 nM for 24 h
- Measurement: 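Firefly light from an androgen-responsive reporter and Renilla control light per well, raw and unnormalised, for each of two replicates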
- Direction: firefly reporter light: higher = more light from androgen-responsive reporter; Renilla control light: higher = more constitutive control signal (cell number, transfection)
- Hit rule: 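Across duplicate plates, a knock-down whose log firefly/Renilla ratio shifted a set fold down or up from the GFP/LacZ control mean was a hit; the downward cut appears as both 1.5 and 3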
- Meaning of the calls: active = hit: reporter lowered or raised; inactive = no hit
The deposit covers about 24,000 reagents; shown is an unselected part of those with a known target gene and a result. Of all reagents, 246 (1%) were called active. 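Plates not normalised; calls are printed but the firefly/Renilla ratio behind them is not deposited; fold cut for lowering reported inconsistently.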 Raw values are not corrected between plates. The record does not give: the amount of reagent.

SNF4Agamma (GeneID 42515) [DRSC13461] gave firefly reporter light, replicate 1 = 67331; firefly reporter light, replicate 2 = 24208; Renilla control light, replicate 1 = 1.83e5; Renilla control light, replicate 2 = 98499; inactive.
SNF4Agamma (GeneID 42515) [DRSC13463] scored firefly reporter light, replicate 1 = 5.79e5; firefly reporter light, replicate 2 = 6.04e5; Renilla control light, replicate 1 = 1.80e6; Renilla control light, replicate 2 = 2.00e6; inactive.
With knock-down of SNF4Agamma (GeneID 42515) [DRSC15879], the screen gave firefly reporter light, replicate 1 = 2.47e5; firefly reporter light, replicate 2 = 2.57e5; Renilla control light, replicate 1 = 2.97e6; Renilla control light, replicate 2 = 3.16e6; inactive.
Knock-down of SNF4Agamma (GeneID 42515) [DRSC16847] came out at: firefly reporter light, replicate 1 = 49292; firefly reporter light, replicate 2 = 43815; Renilla control light, replicate 1 = 5.79e5; Renilla control light, replicate 2 = 4.71e5; inactive.
After knock-down of SNF4Agamma (GeneID 42515) [DRSC37038], the record shows inactive.
For CG2875 (GeneID 31326) [DRSC18231] the deposit lists firefly reporter light, replicate 1 = 1.14e5; firefly reporter light, replicate 2 = 69567; Renilla control light, replicate 1 = 1.03e6; Renilla control light, replicate 2 = 5.76e5; inactive.

In a second layout: entries from further up
SNF4Agamma (GeneID 42515) [DRSC37038]
- Outcome: inactive

CG2875 (GeneID 31326) [DRSC18231]
- firefly reporter light, replicate 1: 1.14e5
- firefly reporter light, replicate 2: 69567
- Renilla control light, replicate 1: 1.03e6
- Renilla control light, replicate 2: 5.76e5
- Outcome: inactive

The list goes on:
For T3dh (GeneID 37551) [DRSC28231], the entry reads firefly reporter light, replicate 1 = 4.89e5; firefly reporter light, replicate 2 = 6.78e5; Renilla control light, replicate 1 = 1.37e6; Renilla control light, replicate 2 = 1.80e6; inactive.
After knock-down of CG33181 (GeneID 318916) [DRSC17971], the screen gave firefly reporter light, replicate 1 = 2.13e5; firefly reporter light, replicate 2 = 3.10e5; Renilla control light, replicate 1 = 1.91e6; Renilla control light, replicate 2 = 2.68e6; inactive.
Silencing of CG33181 (GeneID 318916) [DRSC22376] resulted in: firefly reporter light, replicate 1 = 7.22e5; firefly reporter light, replicate 2 = 5.79e5; Renilla control light, replicate 1 = 2.76e6; Renilla control light, replicate 2 = 1.66e6; inactive.
Knock-down of CG33181 (GeneID 318916) [DRSC29457] resulted in: firefly reporter light, replicate 1 = 3.82e5; firefly reporter light, replicate 2 = 6.01e5; Renilla control light, replicate 1 = 1.54e6; Renilla control light, replicate 2 = 1.54e6; inactive.
After knock-down of CG43316 (GeneID 36326) [DRSC06297] the results were firefly reporter light, replicate 1 = 1.97e5; firefly reporter light, replicate 2 = 1.99e5; Renilla control light, replicate 1 = 1.36e6; Renilla control light, replicate 2 = 1.02e6; inactive.
CG43316 (GeneID 36326) [DRSC28460] scored firefly reporter light, replicate 1 = 1.72e5; firefly reporter light, replicate 2 = 3.21e5; Renilla control light, replicate 1 = 4.18e5; Renilla control light, replicate 2 = 8.54e5; inactive.
